Data reported in US11064697B2 (priority 2015, dated 2021).
Some of these results come from one statement about several compounds together.

Experiments:
Botrytis cinerea [1] = experiment: Green house: long lasting control of Botrytis cinerea on leaves of green pepper; type: in vivo; conditions: 250 ppm active substance; green pepper sprayed, inoculated after 7 days, assessed after 5 days at 22 to 24° C.; untreated plants 80% infected
Botrytis cinerea [2] = experiment: Microtest: activity against the grey mold Botrytis cinerea in the microtiterplate test; type: cell-based; conditions: 31 ppm active substance; MTP measured at 405 nm 7 days after inoculation, 18° C.
Pyricularia oryzae = type: cell-based; conditions: 31 ppm active substance; MTP measured at 405 nm 7 days after inoculation, 18° C.
Septoria tritici = experiment: Microtest: activity against leaf blotch on wheat caused by Septoria tritici; type: cell-based; conditions: 31 ppm active substance; MTP measured at 405 nm 7 days after inoculation, 18° C.

SMILES | growth of the pathogen (extent of fungal attack on the leaves, visually assessed as % diseased leaf area) (Botrytis cinerea [1]) | growth of the pathogen (relative growth in %) (Botrytis cinerea [2]) | growth of the pathogen (relative growth in %) (Pyricularia oryzae) | growth of the pathogen (relative growth in %) (Septoria tritici)
CSc1ncc(C2=NC(C)(C)C(F)(F)c3ccccc32)cc1C [D-51] | at most 15% | at most 19% | at most 22% | at most 18%
CC(=O)c1ncc(C2=NC(C)(C)C(F)(F)c3ccccc32)cc1C(F)(F)F [D-45] |  | at most 19% | at most 22% | at most 18%
Cc1ncc(C2=NC(C)(C)C(F)(F)c3ccccc32)cc1Br [D-20] | at most 15% | at most 19% | at most 22% | at most 18%
CC1(C)N=C(c2cnc(C(F)F)c(C#N)c2)c2ccccc2C1(F)F [D-49] | at most 15% |  | at most 22% | at most 18%
CSc1cc(C2=NC(C)(C)C(F)(F)c3ccccc32)cnc1C [D-53] | at most 15% | at most 19% | at most 22% | at most 18%
CC1(C)N=C(c2cnc(C(F)F)c(Cl)c2)c2ccccc2C1(F)F [D-71] | at most 15% | at most 19% |  | at most 18%
COc1ncc(C2=NC(C)(C)C(F)(F)c3ccccc32)cc1C [D-17] |  | at most 19% | at most 22% | at most 18%
Cc1cc(C2=NC(C)(C)C(F)(F)c3ccccc32)cnc1C(F)F [D-55] | at most 15% | at most 19% | at most 22% | at most 18%
CC1(C)N=C(c2cnc(Cl)c(Br)c2)c2ccccc2C1(F)F [D-90] |  | at most 19% | at most 22% | at most 18%
Cc1ncc(C2=NC(C)(C)C(F)(F)c3ccccc32)cc1Cl [D-61] | at most 15% | at most 19% | at most 22% | at most 18%
